Data on five substances can be found in publication PMC3836728.

By UniProt entry, the sequences of proteins in these tests, tags left out. Where a name states a change or a piece, a line headed by the entry shows the natural chain unless it says otherwise. Residues count along the entry.
UniProt Q9QR71: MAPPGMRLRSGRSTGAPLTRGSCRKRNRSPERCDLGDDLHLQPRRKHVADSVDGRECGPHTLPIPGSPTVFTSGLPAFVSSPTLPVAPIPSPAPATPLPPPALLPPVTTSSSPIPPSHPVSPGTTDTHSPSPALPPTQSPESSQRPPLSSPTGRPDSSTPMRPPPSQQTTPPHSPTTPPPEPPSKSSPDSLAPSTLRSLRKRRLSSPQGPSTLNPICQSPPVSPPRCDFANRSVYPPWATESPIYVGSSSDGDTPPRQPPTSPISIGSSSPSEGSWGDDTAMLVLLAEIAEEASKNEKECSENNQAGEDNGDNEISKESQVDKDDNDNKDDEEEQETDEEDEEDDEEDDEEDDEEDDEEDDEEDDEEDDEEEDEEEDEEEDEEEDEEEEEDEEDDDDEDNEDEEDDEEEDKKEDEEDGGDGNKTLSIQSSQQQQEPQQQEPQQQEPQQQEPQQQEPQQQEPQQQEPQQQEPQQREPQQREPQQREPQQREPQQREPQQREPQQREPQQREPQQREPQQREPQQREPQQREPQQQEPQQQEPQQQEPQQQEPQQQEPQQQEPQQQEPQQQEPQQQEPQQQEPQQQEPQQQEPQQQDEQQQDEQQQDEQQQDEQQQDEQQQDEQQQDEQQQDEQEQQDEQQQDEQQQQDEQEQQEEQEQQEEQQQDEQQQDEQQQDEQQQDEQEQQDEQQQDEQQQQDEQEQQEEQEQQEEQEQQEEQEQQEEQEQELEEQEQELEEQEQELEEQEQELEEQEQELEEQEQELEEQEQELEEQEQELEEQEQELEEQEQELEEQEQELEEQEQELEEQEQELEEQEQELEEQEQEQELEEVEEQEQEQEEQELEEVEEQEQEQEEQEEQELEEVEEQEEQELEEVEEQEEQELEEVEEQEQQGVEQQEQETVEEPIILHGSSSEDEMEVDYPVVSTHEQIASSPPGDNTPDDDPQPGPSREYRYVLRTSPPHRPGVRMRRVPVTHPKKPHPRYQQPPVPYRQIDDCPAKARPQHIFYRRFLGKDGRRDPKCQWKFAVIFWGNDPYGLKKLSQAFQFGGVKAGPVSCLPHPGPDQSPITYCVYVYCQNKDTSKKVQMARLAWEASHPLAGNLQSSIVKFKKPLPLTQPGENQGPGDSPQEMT
GST-LN(1–329) (Kaposi's sarcoma-associated herpesvirus (KSHV)): residues 1-329 of Q9QR71
UniProt P61956: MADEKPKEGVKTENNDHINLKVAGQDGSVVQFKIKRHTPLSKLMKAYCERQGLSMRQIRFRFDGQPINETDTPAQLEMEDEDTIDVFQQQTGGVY
UniProt Q13263: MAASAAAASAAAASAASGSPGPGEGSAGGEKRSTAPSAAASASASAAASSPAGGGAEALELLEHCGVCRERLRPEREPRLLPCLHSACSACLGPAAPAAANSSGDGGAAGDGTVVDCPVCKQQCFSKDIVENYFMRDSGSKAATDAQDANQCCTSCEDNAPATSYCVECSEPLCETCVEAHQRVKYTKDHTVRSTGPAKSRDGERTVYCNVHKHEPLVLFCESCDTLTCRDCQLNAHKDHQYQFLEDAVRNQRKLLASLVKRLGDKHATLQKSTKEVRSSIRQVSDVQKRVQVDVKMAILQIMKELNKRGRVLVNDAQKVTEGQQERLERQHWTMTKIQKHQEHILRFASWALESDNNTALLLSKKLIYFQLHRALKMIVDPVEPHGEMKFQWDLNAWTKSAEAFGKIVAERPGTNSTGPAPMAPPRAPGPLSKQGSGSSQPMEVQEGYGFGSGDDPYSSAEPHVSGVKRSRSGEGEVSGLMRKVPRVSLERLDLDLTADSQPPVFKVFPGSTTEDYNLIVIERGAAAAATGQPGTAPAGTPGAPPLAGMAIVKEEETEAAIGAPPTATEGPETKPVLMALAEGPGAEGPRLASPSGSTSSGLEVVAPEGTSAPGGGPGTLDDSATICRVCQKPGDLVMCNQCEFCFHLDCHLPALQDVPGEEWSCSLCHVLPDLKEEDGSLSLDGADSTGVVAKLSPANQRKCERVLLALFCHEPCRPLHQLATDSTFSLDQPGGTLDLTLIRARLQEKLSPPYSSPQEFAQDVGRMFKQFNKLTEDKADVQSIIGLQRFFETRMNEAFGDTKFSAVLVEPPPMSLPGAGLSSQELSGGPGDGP
UniProt Q09472: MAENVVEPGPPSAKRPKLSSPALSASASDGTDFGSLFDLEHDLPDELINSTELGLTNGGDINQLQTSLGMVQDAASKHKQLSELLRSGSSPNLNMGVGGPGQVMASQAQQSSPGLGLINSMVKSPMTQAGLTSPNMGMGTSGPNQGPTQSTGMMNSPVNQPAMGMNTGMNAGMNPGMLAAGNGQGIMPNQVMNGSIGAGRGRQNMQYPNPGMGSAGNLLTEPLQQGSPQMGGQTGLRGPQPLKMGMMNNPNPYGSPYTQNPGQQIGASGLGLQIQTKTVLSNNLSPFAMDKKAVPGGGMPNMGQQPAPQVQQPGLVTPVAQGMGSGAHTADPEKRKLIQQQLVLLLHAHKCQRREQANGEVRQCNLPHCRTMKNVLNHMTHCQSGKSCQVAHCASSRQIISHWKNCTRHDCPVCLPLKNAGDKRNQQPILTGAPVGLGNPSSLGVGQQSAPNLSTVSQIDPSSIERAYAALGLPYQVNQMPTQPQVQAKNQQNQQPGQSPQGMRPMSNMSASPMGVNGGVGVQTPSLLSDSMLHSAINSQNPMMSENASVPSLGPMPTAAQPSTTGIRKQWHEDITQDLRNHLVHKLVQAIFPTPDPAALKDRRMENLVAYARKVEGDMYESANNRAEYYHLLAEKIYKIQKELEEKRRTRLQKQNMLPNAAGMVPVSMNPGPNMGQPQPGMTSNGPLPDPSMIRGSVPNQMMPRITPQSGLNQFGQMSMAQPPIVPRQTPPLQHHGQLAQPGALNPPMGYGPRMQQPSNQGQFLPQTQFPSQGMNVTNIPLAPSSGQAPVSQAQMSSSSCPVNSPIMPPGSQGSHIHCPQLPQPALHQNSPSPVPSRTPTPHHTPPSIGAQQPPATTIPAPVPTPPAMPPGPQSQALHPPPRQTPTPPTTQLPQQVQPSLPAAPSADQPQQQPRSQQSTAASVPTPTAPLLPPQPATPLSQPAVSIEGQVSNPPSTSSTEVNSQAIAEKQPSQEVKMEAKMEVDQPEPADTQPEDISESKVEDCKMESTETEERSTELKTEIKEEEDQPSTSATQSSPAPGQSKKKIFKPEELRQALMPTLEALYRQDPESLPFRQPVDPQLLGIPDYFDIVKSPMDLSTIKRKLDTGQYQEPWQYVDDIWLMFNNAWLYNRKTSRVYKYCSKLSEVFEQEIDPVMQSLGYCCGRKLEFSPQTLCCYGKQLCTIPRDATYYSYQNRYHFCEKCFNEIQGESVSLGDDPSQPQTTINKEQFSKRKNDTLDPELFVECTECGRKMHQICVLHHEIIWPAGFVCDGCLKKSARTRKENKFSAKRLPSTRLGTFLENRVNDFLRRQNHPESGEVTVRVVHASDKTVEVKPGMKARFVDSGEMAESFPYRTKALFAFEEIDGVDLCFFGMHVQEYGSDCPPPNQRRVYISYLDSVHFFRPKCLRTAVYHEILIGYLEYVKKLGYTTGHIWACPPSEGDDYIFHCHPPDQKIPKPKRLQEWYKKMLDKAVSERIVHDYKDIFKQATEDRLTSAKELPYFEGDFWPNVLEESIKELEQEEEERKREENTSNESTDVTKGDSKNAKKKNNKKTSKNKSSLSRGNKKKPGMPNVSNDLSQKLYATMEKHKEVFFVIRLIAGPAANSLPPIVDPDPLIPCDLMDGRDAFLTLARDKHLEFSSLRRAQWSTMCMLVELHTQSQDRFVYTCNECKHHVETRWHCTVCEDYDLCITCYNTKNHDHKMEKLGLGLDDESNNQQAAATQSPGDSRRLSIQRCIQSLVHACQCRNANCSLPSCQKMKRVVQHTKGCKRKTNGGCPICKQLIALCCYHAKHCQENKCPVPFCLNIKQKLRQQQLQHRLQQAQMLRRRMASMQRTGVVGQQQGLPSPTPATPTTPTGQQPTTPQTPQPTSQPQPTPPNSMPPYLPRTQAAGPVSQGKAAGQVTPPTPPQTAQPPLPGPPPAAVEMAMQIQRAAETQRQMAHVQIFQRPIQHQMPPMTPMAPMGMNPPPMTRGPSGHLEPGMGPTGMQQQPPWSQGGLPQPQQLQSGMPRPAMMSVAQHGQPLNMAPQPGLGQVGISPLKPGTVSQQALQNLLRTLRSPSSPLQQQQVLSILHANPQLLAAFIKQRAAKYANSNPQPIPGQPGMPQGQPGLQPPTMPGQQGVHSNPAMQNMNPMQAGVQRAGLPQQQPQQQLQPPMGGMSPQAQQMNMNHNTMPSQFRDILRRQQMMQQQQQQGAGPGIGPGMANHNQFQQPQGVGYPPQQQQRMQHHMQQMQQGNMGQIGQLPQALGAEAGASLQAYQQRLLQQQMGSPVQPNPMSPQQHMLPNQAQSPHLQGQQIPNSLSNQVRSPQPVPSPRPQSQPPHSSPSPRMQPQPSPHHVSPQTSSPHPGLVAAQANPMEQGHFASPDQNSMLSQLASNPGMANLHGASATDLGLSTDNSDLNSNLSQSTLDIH

These are yes or no findings as the source states them, for the method shown. In cells and extracts the contact can be indirect. Some binding calls cover weakened binding; strength is not graded here.

The target in assay [1] is GST-LN(1–329) (Kaposi's sarcoma-associated herpesvirus (KSHV)) (UniProt Q9QR71). The experiment in a line: pull-down; GST fusion of LANA 1–329 (WT or ΔSIM) with nuclear extracts, western blot with specific antibodies; data not shown; only the target purified.
Assay [2] concerns the target His-SUMO-2 recombinant protein (UniProt P61956). The experiment in a line: pull-down; 35S-labeled in vitro-translated LANA incubated with His-SUMO-1 or His-SUMO-2 on Nickel-agarose (Ni-NTA) beads, 3 hrs at 4°C in NETN binding buffer; autoradiography; only the target purified.
The target of assay [3] is full length LANA with myc tag (Kaposi's sarcoma-associated herpesvirus (KSHV)) (UniProt Q9QR71). As to the kind of experiment: co-IP; HEK293 co-transfected with FLAG-KAP1 (wild type or lysine mutants) and myc-tagged LANA in the presence of HA-SUMO-1, HA-SUMO-2 or vector alone.

Regarding “CREB-binding protein (CBP) (from UniProt Q92793 1-2442)”, the binding result in assay [1] is on record as “binds”.

As to “KAP1 (also known as TIF1β or TRIM28) (from UniProt Q13263 1-835)”, the binding entry in assay [1] is given as “binds”.

With “in vitro-translated, radiolabeled wild type (WT) full length LANA (from UniProt Q9QR71 1-1129)”, the binding result in assay [2] is on record as “binds”.

On to p300 (from UniProt Q09472 1-2414), for which the binding result in assay [1] is “binds”.

For the substance “poly-SUMO1 modified FLAG-KAP1 (wild type) (from UniProt Q13263 1-835; P63165 1-97) (complex)”, the binding entry in assay [3] is recorded as “no binding”.
